Data on 42 sequences can be found in article PMC7819943, “Rice protein-binding microarrays: a tool to detect cis-acting elements near promoter regions in rice”.

By UniProt entry, the sequences of proteins in these tests, tags left out.
UniProt Q0JBA9, entry or part of it: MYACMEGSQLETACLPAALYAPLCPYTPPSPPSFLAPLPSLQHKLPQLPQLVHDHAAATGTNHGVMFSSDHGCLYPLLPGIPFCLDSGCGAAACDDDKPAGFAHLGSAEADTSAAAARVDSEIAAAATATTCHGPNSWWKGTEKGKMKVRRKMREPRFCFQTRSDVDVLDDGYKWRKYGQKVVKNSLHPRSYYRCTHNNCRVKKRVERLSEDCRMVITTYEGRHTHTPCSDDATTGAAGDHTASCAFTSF

The other results are listed elsewhere or left out.

The test deals with OsWRKY34 (Oryza sativa, UniProt Q0JBA9 1-250). Briefly: protein-binding microarray (RPBM); PBS, 2% BSA, 51.3 ng/ul salmon testes DNA, 50 uM zinc acetate, 200 nM TF, 25 C, 1 h; high values mean tight binding. As to conditions: protein: recombinant; tags: N-terminal polyhistidine and DsRed monomer fusion (pET32a); label: CyDye5-dUTP incorporated in the synthesized complementary strand; 3' TTTTT single-stranded linker to array surface; dsDNA, one strand shown. The procedure, abridged: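 Binding signal is defined as the fluorescence intensity of each feature in arbitrary units, read on an Axon 4000B scanner. Transcription factors with N-terminal polyhistidine and DsRed fusions came from E. coli BL21-CodonPlus and were purified on Ni–NTA. They were incubated at 200 nM for 1 h at 25 °C on a custom Agilent array that had been made double-stranded with Cy5-dUTP, with 50 µM zinc acetate present, and the array was washed.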
As to “TTTCATACCTCGCTTTATACGACATTTGTGCAAATCATCGCGGAGTCACCTAGTGCAG”, the binding signal is 8670 fluorescence intensity (a.u.).

With “CTTATATTTTCATTTAGTGTGTGTTTTTTTTCTATTTTTCCGGAGTCACCTAGTGCAG”, the binding signal is 11600 fluorescence intensity (a.u.).

With “CTCAACCTTGCTTCCATTCTTTCCATCCACCCGCCGATCGCGGAGTCACCTAGTGCAG”, the binding signal was 10200 fluorescence intensity (a.u.).

As for “ATGGTCAAACATGTGAGAAAAAGTCAACGGCGTCATCTATCGGAGTCACCTAGTGCAG”, the binding signal was 19600 fluorescence intensity (a.u.).

Take “CGTCCACCGCACACCGCCCGAGGGCCCAACACCCGGTCCACGGAGTCACCTAGTGCAG”: the binding signal was 8870 fluorescence intensity (a.u.).

Consider “ACACTGTTCATGCACTTTTTATTTTTTTAGTGGACCAACTCGGAGTCACCTAGTGCAG”, for which the binding signal was 8450 fluorescence intensity (a.u.).

Take “CTATACCAGCGCCCCGCGCCTTCAGCTTGTCGTGCTCCTCCGGAGTCACCTAGTGCAG”: the binding signal was 8560 fluorescence intensity (a.u.).

As to “CTATGATTTTTTTGTTTTCCGTGCTCTAAGTTCATCTTCACGGAGTCACCTAGTGCAG”, the binding signal is 8330 fluorescence intensity (a.u.).

For “AAACCATTAAAATTTTCACTTCCAATTTGCTTTCGTCCCGCGGAGTCACCTAGTGCAG”, the binding signal is 9880 fluorescence intensity (a.u.).

For the sequence “TGCACTTGTAGGATGGGTATTTAATTATGTGTTTTACTTACGGAGTCACCTAGTGCAG”, the binding signal is 12300 fluorescence intensity (a.u.).

“ACTACATTCGCATTGATTCAAGCAGTTGCTTCACTTTCTCCGGAGTCACCTAGTGCAG”: the binding signal was 8900 fluorescence intensity (a.u.).

For “TGCACGTATCACGGTGATAGGCCTACGCGCTATGTCTAACCGGAGTCACCTAGTGCAG”, the binding signal was 8060 fluorescence intensity (a.u.).

For the sequence “AATAGGTGTAGCTTTCGTTTCTGGGCATTCTATTTTTCATCGGAGTCACCTAGTGCAG”, the binding signal is 15300 fluorescence intensity (a.u.).

For the sequence “TAGGACGGAGGGAGTATGTGTCTGCTGTTTAGTTCCTGTACGGAGTCACCTAGTGCAG”, the binding signal is 8810 fluorescence intensity (a.u.).

Consider “CCCGTGTCTTGTGCTTTTTCCATTCTCGCGAACTTTCCACCGGAGTCACCTAGTGCAG”, for which the binding signal is 11000 fluorescence intensity (a.u.).

For the sequence “TTCAAGCCGTCCCCACCGACCGCCTCCACCATGCGGCGCCCGGAGTCACCTAGTGCAG”, the binding signal was 8170 fluorescence intensity (a.u.).

Take “CGCAAGGGAGAATAGGGGTGTTGAGAGGAGGGGCGACAGGCGGAGTCACCTAGTGCAG”: the binding signal was 8240 fluorescence intensity (a.u.).

For the sequence “TCAACCACCCCGTGATGCATCTTTTTAGCTACATGGAACCCGGAGTCACCTAGTGCAG”, the binding signal was 9200 fluorescence intensity (a.u.).

In the case of “TTATACCTTGTGTTACTTTTATTTATTCCCTTAGTATGTACGGAGTCACCTAGTGCAG”, the binding signal was 8960 fluorescence intensity (a.u.).

Regarding “GCCTCTCAATCTGCACGTCCACATCGGTTCTCGGTGCCCGCGGAGTCACCTAGTGCAG”, the binding signal was 8140 fluorescence intensity (a.u.).

As to “AATTTTCCGTTTCTCCTTTTCTTGCTTTGTTTTTTCCTTGCGGAGTCACCTAGTGCAG”, the binding signal was 15200 fluorescence intensity (a.u.).

In the case of “GCCCACAATTTGGTCCACAAGCTGCATCTATTCCCAAGCCCGGAGTCACCTAGTGCAG”, the binding signal was 8730 fluorescence intensity (a.u.).

Turning to “CCTTTCGTTTTATATTATAATTCGTTTTGACTTTTTTCTTCGGAGTCACCTAGTGCAG”, the binding signal is 10500 fluorescence intensity (a.u.).

Consider “TACTGTTGAGAGACCTTGTTTGCACTCGTTTTCGTAAGTTCGGAGTCACCTAGTGCAG”, for which the binding signal was 9140 fluorescence intensity (a.u.).

Turning to “GAGCATTGGGTTGGGCCTTCCTTTCTTGTATTCGGCTTCTCGGAGTCACCTAGTGCAG”, the binding signal is 16500 fluorescence intensity (a.u.).

Take “CTGCTTGTTTCATCAATTGCCTCGTAAATTCCAGGTTTTACGGAGTCACCTAGTGCAG”: the binding signal is 8170 fluorescence intensity (a.u.).

Turning to “CGTTTCTGCGGTTCTGATTTTCTTTATTGCCAACCTCCATCGGAGTCACCTAGTGCAG”, the binding signal is 8460 fluorescence intensity (a.u.).

Take “GCCACACCGGCCCACACCCTGCGTCCCTACCTCGCACTCGCGGAGTCACCTAGTGCAG”: the binding signal was 11600 fluorescence intensity (a.u.).

Consider “CTGTGTGGTGGTGGTGGAAGTGGAGGAGCAAACCTTGGACCGGAGTCACCTAGTGCAG”, for which the binding signal is 8880 fluorescence intensity (a.u.).

Regarding “CAACTCTCCACCATTTAATTTTTTTTACCTACCTCCACTTCGGAGTCACCTAGTGCAG”, the binding signal was 8150 fluorescence intensity (a.u.).

“CTTTATATCATCGGAAAACGATAGTCCTCTACGTAGTAAACGGAGTCACCTAGTGCAG”: the binding signal is 8180 fluorescence intensity (a.u.).

“GTGGGCGTGGGCCCCGCGTCCTGTGGTGGTGGTGGGTGCTCGGAGTCACCTAGTGCAG”: the binding signal is 9200 fluorescence intensity (a.u.).

Take “CCTCGTTTTTTTTTTTGGGTTCATCTCGTGTGTTCCGTGACGGAGTCACCTAGTGCAG”: the binding signal was 18400 fluorescence intensity (a.u.).

For the sequence “GCTTGATTCATTAATTCATATGTGTCGTGTACTACTAATCCGGAGTCACCTAGTGCAG”, the binding signal is 11200 fluorescence intensity (a.u.).

Consider “TCCTTTTATTTACCTTTGTGTGCTTTATACCAGACTAGCTCGGAGTCACCTAGTGCAG”, for which the binding signal is 11000 fluorescence intensity (a.u.).

Consider “CATTATGTTTTGTTCATCTTTTATTACTAAAGTTTCGGTTCGGAGTCACCTAGTGCAG”, for which the binding signal is 9150 fluorescence intensity (a.u.).

On to “TCGCACGCTCACTCGCCTGCTCTGACTACTCGCCTCCTGCCGGAGTCACCTAGTGCAG”, for which the binding signal is 8580 fluorescence intensity (a.u.).

Consider “GCGCGTTGACGTAACCACCTCGTCCTCATCATCATCCTCTCGGAGTCACCTAGTGCAG”, for which the binding signal is 8630 fluorescence intensity (a.u.).

In the case of “TACTTATATGGGTAGGGAAGAGTATGCAGGTCCAATCTTTCGGAGTCACCTAGTGCAG”, the binding signal is 8770 fluorescence intensity (a.u.).

Consider “CACCGCCCCATCGATCTCCGCCCGGCCGCCACCAATCTCGCGGAGTCACCTAGTGCAG”, for which the binding signal was 10200 fluorescence intensity (a.u.).

As for “GGTGGGAGCACGATGCGGGACGTGGGGTGGGATCGGAAGCCGGAGTCACCTAGTGCAG”, the binding signal is 8590 fluorescence intensity (a.u.).

Turning to “ATGGCCACCCACAAGCTCGACAGCGCTGAATTCATTATTTCGGAGTCACCTAGTGCAG”, the binding signal was 8400 fluorescence intensity (a.u.).
